# Measurements as given in patent US9326989B2, “Oleyl phosphocholine” (Max-Planck-Gesellschaft zur Foerderung der Wissenschaften …, priority 2007, dated 2016).
# At least one structure is not confirmed: it was looked up by name or label, or the drawing left a doubt.
# Legend:
# canine leishmaniasis = experiment: dosage range (start of activity to start of toxicity) in dog; format: in vivo; conditions: dogs
# human leishmaniasis = experiment: dosage range (start of activity to start of toxicity) in man; format: in vivo
smiles,measurement,setting,value
"CCCCCCCCCCCCCCCCOP(=O)([O-])OCC[N+](C)(C)C [HePC, hexadecyl phosphocholine]",daily dosages that work well / effect at these dosages against leishmaniasis,canine leishmaniasis,without effect
same,daily dosages that work well / effect at these dosages against leishmaniasis,human leishmaniasis,without effect
